Measurements from publication PMC5570423, “Structural characterisation of TNRC6A nuclear localisation signal in complex with importin-alpha” (PLoS ONE, 2017).
No constants are given. Whether binding was seen depends on the method and setting. Tags and fused reporters may be left off the sequences shown.

By UniProt entry, the sequences of proteins in these tests, tags left out.
UniProt P70168: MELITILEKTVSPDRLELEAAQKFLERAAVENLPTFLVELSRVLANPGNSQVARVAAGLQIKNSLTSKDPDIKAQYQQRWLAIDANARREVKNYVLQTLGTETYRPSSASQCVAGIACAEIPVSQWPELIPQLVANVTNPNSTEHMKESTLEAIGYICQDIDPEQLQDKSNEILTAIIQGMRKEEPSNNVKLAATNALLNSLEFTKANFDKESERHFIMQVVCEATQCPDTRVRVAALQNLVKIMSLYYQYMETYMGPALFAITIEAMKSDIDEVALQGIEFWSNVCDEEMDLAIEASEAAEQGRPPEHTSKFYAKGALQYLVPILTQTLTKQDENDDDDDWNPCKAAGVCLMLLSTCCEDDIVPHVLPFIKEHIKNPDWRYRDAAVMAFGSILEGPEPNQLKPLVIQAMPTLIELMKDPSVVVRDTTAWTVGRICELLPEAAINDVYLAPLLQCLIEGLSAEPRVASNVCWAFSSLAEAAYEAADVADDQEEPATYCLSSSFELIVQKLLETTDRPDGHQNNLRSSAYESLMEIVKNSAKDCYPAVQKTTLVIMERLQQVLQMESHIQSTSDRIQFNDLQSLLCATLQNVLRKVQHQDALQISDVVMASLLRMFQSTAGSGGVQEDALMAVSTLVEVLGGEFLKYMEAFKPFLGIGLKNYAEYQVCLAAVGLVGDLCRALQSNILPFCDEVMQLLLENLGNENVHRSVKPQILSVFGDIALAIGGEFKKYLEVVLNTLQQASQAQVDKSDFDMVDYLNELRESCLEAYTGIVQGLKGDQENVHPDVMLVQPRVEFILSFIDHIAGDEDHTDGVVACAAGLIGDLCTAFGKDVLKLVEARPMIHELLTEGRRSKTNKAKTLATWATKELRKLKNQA
UniProt Q14974: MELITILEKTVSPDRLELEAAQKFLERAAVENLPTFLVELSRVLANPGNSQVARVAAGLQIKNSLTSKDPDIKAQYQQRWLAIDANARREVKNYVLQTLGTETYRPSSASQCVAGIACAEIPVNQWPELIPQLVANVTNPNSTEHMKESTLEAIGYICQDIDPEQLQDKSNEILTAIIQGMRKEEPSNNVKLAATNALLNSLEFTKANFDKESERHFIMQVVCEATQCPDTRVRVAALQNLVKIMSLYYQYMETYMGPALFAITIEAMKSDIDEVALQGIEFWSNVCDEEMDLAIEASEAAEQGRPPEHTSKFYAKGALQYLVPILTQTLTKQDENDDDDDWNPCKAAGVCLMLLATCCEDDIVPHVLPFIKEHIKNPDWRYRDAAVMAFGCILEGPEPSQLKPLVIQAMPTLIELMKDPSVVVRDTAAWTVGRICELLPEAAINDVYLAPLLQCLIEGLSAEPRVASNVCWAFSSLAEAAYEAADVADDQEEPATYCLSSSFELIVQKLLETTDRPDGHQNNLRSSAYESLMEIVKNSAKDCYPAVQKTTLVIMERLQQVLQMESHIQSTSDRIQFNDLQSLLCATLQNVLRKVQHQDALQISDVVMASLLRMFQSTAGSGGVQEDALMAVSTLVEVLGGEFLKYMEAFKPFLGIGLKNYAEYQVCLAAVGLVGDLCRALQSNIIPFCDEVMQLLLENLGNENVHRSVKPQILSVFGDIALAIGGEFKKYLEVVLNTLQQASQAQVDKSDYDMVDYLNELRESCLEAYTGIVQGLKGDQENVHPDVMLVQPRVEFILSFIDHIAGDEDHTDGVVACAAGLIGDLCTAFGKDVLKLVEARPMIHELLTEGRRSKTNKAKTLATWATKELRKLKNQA

Molecular target: T1, GST-TNRC6A cNLS (residues 1164–1172 of mouse TNRC6A, corresponding to residues 1179–1187 of human TNRC6A isoform 1) (mouse)
T1 sequence: SGKKRRRER
Experiment: pull-down; GST pull-down: glutathione resin with 100 μg purified GST-cNLS or GST and 250 μg ImpA or 500 μg ImpB, 4°C, 1 hr; 20 mM Tris pH 7.5, […] NaCl, 1 mM DTT; eluted with 10 mM glutathione; SDS-PAGE; both purified

| Substance | binding |
| --- | --- |
| Mouse importin-β (His-tagged) (from UniProt P70168 1-876) | no binding (tested: 500 μg of ImpB with 100 μg GST-cNLS) |
| Human importin-β (His-tagged) (from UniProt Q14974 1-876) | no binding (tested: 500 μg of ImpB with 100 μg GST-cNLS) |
